Laboratory results reported in US5580751 (dated 1996).

Assay: peptide synthesis
Conditions: late stage modification step

Row | Substance | step yield [%]
1 | Pro-Gln-Thr-Ala-Ile-Gly-Val-Gly-Ala-Pro-2-nitrophenylglycine (SEQ ID NO:12) amide | >90
2 | Tyr-Gly-Trp-Met-Asp-Phe-2-nitrophenylglycine amide | ~100
3 | PQTAIGVGAP-NH2 | >70

No end group written: not given here.
